# Where “and” joins values, the source holds several entries; their conditions need not be identical. Identical values can stand only once. The list shows a part of the results. Further columns of the screen follow, without active or inactive calls. Most of these compounds were active or inconclusive in the main read-out, so they are no random draw. The note in brackets gives the kind of curve behind each potency; many fits are weak.
# Experiment: IkB Signaling
# Conditions: ABC-DLBCL IkBa-CBG/CBR dual luciferase ratio (green luciferase fused to IkBa over red control in OCI-Ly3 lymphoma cells), 4 h
# Outline: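 In this assay, an IκBα–CBG68 fusion accumulates when IKK-driven degradation is blocked; native CBR normalizes for cell number. OCI-Ly3 cells were treated 4 h with compound and doxycycline, then green and red light read after Chroma-Glo addition.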
# [1] = measured here: control luc red channel unless noted
# [2] = measured here: IkB-luc green channel
# [3] = measured here: control luc red channel
smiles,measurement,setting,value
O=C(O)CCSc1nnc(-c2ccc3c(c2)OCO3)o1,AC50,[1],"0.251 µM [falling, full curve]"
CC1CCCN(CCCNC(=O)c2coc3nc4ccccc4nc23)C1 (configuration not stated),AC50,[1],"10 µM [falling, partial curve]"
CCOc1cc(-c2nnc(SCC(=O)NC3CCCC3)nc2-c2ccc(OC)c(OCC)c2)ccc1OC,AC50,[1],"12.6 µM [rising, single point]"
O=C1CC(c2ccco2)Cc2nc(N3CCN(Cc4ccc5c(c4)OCO5)CC3)ncc21 (configuration not stated),AC50,[1],"7.94 µM [falling, partial curve]"
CC(C)Cn1c2c(c(O)c(C(=O)Nc3ncccc3O)c1=O)CCCC2,AC50,[1],"7.94 µM [falling, single point]"
O=C(CSc1nccn1C1CCCC1)Nc1ccc(C(F)(F)F)cc1,AC50,[1],"31.6 µM [falling, single point]"
CC(C)CCN1C(=O)c2ccccc2CC1(C)C(=O)NC1CCC(C)CC1 (configuration not stated),AC50,[1],"0.0631 µM [rising, full curve, poor fit]"
O=C(c1ccccc1)c1ccc(C(=O)N2CCN(c3ccc(F)cc3)CC2)o1,AC50,[1],"7.94 µM [falling, full curve, poor fit]"
CC(C)c1ccc(-c2nc(C(N)=O)c3c(n2)n(-c2ccc4c(c2)OCO4)c(=O)n3C)cc1,AC50,[1],"2 µM [falling, partial curve]"
Cc1ccccc1S(=O)(=O)Cc1ccc(C(=O)NC2CCC(C)CC2)o1 (configuration not stated),AC50,[1],"25.1 µM [falling, single point]"
Cc1ccc(CNC(=O)C2CCN(S(=O)(=O)c3ccc4[nH]c(=O)ccc4c3)CC2)cc1,AC50,[1],"0.0631 µM [falling, full curve, poor fit]"
COc1cc2c(cc1O)CC[C@@H]1[C@@H]2CC[C@@]2(C)[C@H](O)CC[C@H]12,AC50,[2],"12.6 µM [rising, partial curve]"
same,AC50,[3],"15.8 µM [rising, partial curve]"
Cc1nn(-c2ccccc2)c2c1N(CC(=O)N1CCN(c3ccc(F)cc3)CC1)C(=O)CS2,AC50,[1],"39.8 µM [falling, single point]"
CCOc1ccc(C(=O)c2ccc(OCC)c(N)c2)cc1N,AC50,[1],"5.01 µM [rising, partial curve]"
CC1(C)C(=O)N(CC(=O)Nc2cccc(F)c2)c2ccc(S(=O)(=O)N3CCCCC3)cc21,AC50,[1],"39.8 µM [falling, single point]"
COc1cccc2cc(C(=O)Nc3ccc(F)c(F)c3)c(=O)oc12,AC50,[1],"0.2 µM [falling, full curve]"
CC(=O)c1c(C)nn(CC(O)COc2ccc3c(c2)CCC3)c1C (configuration not stated),AC50,[1],"25.1 µM [falling, single point]"
CC(C)c1ccc(N2C(=O)CS(=O)(=O)C23C(=O)N(Cc2cccc(F)c2)c2ccccc23)cc1 (configuration not stated),AC50,[1],"31.6 µM [falling, partial curve, poor fit]"
Cc1cc2c(C(C)C)c(O)c(O)c(C=O)c2c(O)c1-c1c(C)cc2c(C(C)C)c(O)c(O)c(C=O)c2c1O,AC50,[1],"12.6 µM [falling, partial curve] and 39.8 µM [falling, partial curve]"
Cc1ccc(C)c(NC(=O)c2cc(S(=O)(=O)N3CCCc4ccccc43)ccc2F)c1,AC50,[1],"7.94 µM [falling, full curve, poor fit]"
CCOC(=O)c1ccc(NS(=O)(=O)c2ccc(-c3cc(C)no3)cc2)cc1,AC50,[1],"2.51 µM [falling, full curve]"
Cc1cc(C)c(OCC(=O)N(Cc2ccco2)Cc2ccco2)c(C)c1,AC50,[1],"31.6 µM [falling, single point]"
COc1ccc(Cn2ccc3nc(C)c(C(=O)Nc4cc(C)cc(C)c4)cc3c2=O)cc1,AC50,[1],"25.1 µM [falling, partial curve]"
Cc1nc2ccccc2c(=O)n1-c1ccc(NC(=O)c2cccc([N+](=O)[O-])c2)cc1,AC50,[1],"15.8 µM [falling, partial curve]"
O=C(Nc1ccon1)c1cc(-c2ccccc2)nc2ccccc12,AC50,[1],"7.94 µM [falling, partial curve]"
COc1ccccc1CCNC(=O)c1ccc(-c2nc(CSc3ccc(C)cc3)c(C)o2)cc1,AC50,[1],"31.6 µM [falling, single point]"
CCOc1ccccc1Nc1nnc(SCc2ccc(C(=O)OC)o2)s1,AC50,[1],"39.8 µM [falling, single point]"
CCOC(=O)C1=C(C)NC(=O)NC1c1cn(-c2ccccc2)nc1-c1ccc(OCC)cc1 (configuration not stated),AC50,[1],"25.1 µM [falling, partial curve]"
CCCCOc1cccc(C(=O)Nc2cccc(-c3nc4ncccc4o3)c2C)c1,AC50,[1],"10 µM [falling, partial curve]"
Cc1ccc(NC(=O)C2CCCN(c3ncnc4onc(-c5ccc(F)cc5)c34)C2)c(Cl)c1 (configuration not stated),AC50,[1],"20 µM [falling, partial curve]"
CCC(C)NC(=O)Cn1ccc2cc(S(=O)(=O)N3CCCCC3)ccc21 (configuration not stated),AC50,[1],"6.31 µM [rising, single point]"
CC(C)c1ccc2oc(-c3ccc(NC(=O)c4ncn[nH]4)cc3)nc2c1,AC50,[1],"0.2 µM [falling, full curve]"
Cc1ccc(-n2c(Cc3cccn3C)nnc2SCC(=O)Nc2ccc3c(c2)OCO3)cc1,AC50,[1],"20 µM [falling, partial curve]"
Cc1cccc(N2CCN(C(=O)CN3C(=O)COc4ccc(S(=O)(=O)N5CCCCCC5)cc43)CC2)c1C,AC50,[1],"12.6 µM [falling, partial curve]"
C=CCn1c(SCC(=O)Nc2ccc(C(=O)OCC)cc2)nnc1-c1sc(N)nc1C,AC50,[1],"12.6 µM [falling, partial curve]"
Cc1nc(N2CCOCC2)c2c(C(=O)NCCc3ccccc3)c(C)oc2n1,AC50,[1],"10 µM [rising, partial curve]"
CCCCn1cc2c(c1-c1ccccc1Br)c(=O)n(C)c(=O)n2C,AC50,[1],"25.1 µM [falling, single point]"
Cc1ccc(C(=O)n2nc(-c3ccco3)nc2NCc2cccs2)cc1,AC50,[1],"6.31 µM [rising, single point]"
COc1cccc(-n2c(-c3ccc(Cl)cc3)cc3c2CC(C)(C)CC3=O)c1,AC50,[1],"15.8 µM [falling, partial curve]"
COc1cc2c(=O)n(Cc3ccccc3Cl)c(=O)n(CC(=O)Nc3ccccc3)c2cc1OC,AC50,[1],"15.8 µM [falling, partial curve]"
Cc1cc2cc(CN(Cc3ccc4c(c3)OCO4)C(=O)c3cnccn3)c3nnnn3c2cc1C,AC50,[1],"39.8 µM [falling, single point]"
CC(C)C(=O)N1CCN(c2ccccc2N)CC1,AC50,[1],"3.98 µM [falling, partial curve]"
Cc1ccc(-c2nnc(SCC(=O)NC3CCCC3)nc2-c2ccc(C)cc2)cc1,AC50,[1],"25.1 µM [falling, partial curve]"
O=C(Cc1cc(=O)[nH]c(=O)[nH]1)NCC1CCCO1 (configuration not stated),AC50,[2],"3.16 µM [falling, full curve]"
same,AC50,[3],"0.631 µM [falling, full curve]"
COC(=O)c1ccccc1NS(=O)(=O)c1ccc2c3c(cccc13)C(=O)N2,AC50,[1],"20 µM [falling, single point]"
Cc1ccccc1Nc1sc(C(=O)c2ccccc2)c(N)c1C(=O)NCc1ccc(Cl)cc1,AC50,[1],"2.51 µM [falling, full curve, poor fit]"
CCOC(=O)C1CCN(S(=O)(=O)c2cc3c4c(c2)CC(=O)N4CCC3)CC1,AC50,[1],"10 µM [rising, partial curve]"
CN(C)S(=O)(=O)n1cc(/C=C(\NC(=O)c2ccccc2Cl)C(=O)NCCCn2ccnc2)c2ccccc21,AC50,[1],"12.6 µM [falling, partial curve]"
O=C(Nc1ccc2c(c1)oc1ccccc12)N1CCOCC1,AC50,[1],"39.8 µM [falling, single point]"
COc1cccc(C(=O)N2c3nc(-c4ccco4)nn3C3(CCCCC3)[C@@H]3CCCC[C@@H]32)c1,AC50,[1],"20 µM [falling, single point]"
CCc1nn(C(C)C(=O)N2CCN(c3cccc(C(F)(F)F)c3)CC2)c(=O)c2cc3occc3n12 (configuration not stated),AC50,[1],"12.6 µM [falling, partial curve]"
CCCNC(=O)c1c(C)nn(-c2cccc(C)c2)c1-n1cccc1,AC50,[1],"15.8 µM [falling, single point]"
CCN(CC)c1nc2c(-c3cccc(Br)c3)nnn2c2ccccc12,AC50,[1],"0.00794 µM [falling, full curve]"
CCN1CCN(C(c2ccc(OC)cc2)c2c(O)cc(C)n(Cc3ccco3)c2=O)CC1 (configuration not stated),AC50,[1],"31.6 µM [falling, single point]"
COc1ccc(CNC(=O)c2ccc(NC(=O)N3CC4CCCN4c4ccccc43)cc2)cc1 (configuration not stated),AC50,[1],"7.94 µM [falling, partial curve]"
COc1cccc(NC(=O)C2CCN(S(=O)(=O)c3cccc4nonc34)CC2)c1,AC50,[1],"15.8 µM [falling, single point]"
Cc1ccc(-n2ncc(C(=O)NCCc3ccccc3)c2C2CCN(C(=O)OC(C)(C)C)CC2)c(C)c1,AC50,[1],"15.8 µM [falling, partial curve]"
Cc1nc(-c2ccc(S(=O)(=O)Nc3ccc(C#N)cc3)cc2)co1,AC50,[1],"1 µM [rising, full curve]"
COC(=O)c1ccc(NC(=O)CSc2nc(C)cc(C)c2C(=O)Nc2ccccc2)cc1,AC50,[1],"15.8 µM [falling, partial curve]"
CCOc1ccc(/C=C/C(=O)Nc2sc3c(c2C(=O)OC)C(C(=O)OC)CC3)cc1 (configuration not stated),AC50,[1],"31.6 µM [rising, single point] [measured here: IkB-luc green channel]"
